Assay results: PMC11551746, “The Swi5–Sfr1 complex regulates Dmc1- and Rad51-driven DNA strand exchange proceeding through two distinct three-stranded intermediates by different mechanisms” (Nucleic Acids Research, 2024)
For at least one entry, the source does not settle the construct or the ends of the probe. For some assays here: The comparison behind a weaker result is the experiment's own reference, which may not be listed here. Protein sequences can lack the tags named with them. For some assays here: At least one verdict was read from the data and is not stated in words by the source.

Assays:
Rad51 = target: T1, Rad51 (UniProt P36601); test: fluorescence anisotropy; conditions: Swi5-Sfr1 present, affinity reduced in a concentration-dependent manner; 30 mM HEPES-KOH pH 7.5, 100 mM KCl, 3 mM MgCl2 or CaCl2, 1 mM DTT, 5% glycerol, 1 mM adenine nucleotide, 3 uM (nt) TAMRA-dT72, 25 C; recombinant protein; label: 5' TAMRA; single-stranded DNA
T1 sequence (looked up, limits assumed): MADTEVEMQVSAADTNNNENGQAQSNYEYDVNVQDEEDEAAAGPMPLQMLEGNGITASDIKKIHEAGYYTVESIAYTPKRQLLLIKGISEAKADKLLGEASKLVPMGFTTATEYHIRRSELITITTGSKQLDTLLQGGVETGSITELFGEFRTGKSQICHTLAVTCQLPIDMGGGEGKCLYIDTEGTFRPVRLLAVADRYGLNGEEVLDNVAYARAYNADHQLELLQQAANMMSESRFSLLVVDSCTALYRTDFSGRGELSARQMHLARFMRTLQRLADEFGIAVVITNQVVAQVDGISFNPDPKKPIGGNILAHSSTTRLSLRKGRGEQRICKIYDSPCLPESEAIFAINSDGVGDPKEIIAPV

Dmc1 = target: T2, Dmc1 (UniProt O42634); test: fluorescence anisotropy; conditions: filament stable for 1600 s under strand exchange conditions; 30 mM HEPES-KOH pH 7.5, 100 mM KCl, 3 mM MgCl2 or CaCl2, 1 mM DTT, 5% glycerol, 1 mM adenine nucleotide, 3 uM (nt) TAMRA-dT72, 25 C; recombinant protein; label: 5' FAM; single-stranded DNA
T2 sequence (looked up, limits assumed): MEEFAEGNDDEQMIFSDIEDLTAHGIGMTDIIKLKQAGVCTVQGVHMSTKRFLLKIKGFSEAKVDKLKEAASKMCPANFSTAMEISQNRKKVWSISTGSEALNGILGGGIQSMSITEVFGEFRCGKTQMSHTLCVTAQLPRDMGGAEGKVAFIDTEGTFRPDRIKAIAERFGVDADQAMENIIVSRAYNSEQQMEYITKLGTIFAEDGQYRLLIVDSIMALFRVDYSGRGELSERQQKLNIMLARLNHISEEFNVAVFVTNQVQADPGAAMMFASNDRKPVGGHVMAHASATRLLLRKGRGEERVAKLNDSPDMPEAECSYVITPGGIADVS

Sequence | binding result (Rad51) | binding result (Dmc1)
TTTTTTTTTTTTTTTTTTTTTTTTTTTTTTTTTTTTTTTTTTTTTTTTTTTTTTTTTTTTTTTTTTTTTTTT [[TAMRA]dT72] | binds more weakly | –
AAATGAACATAAAGTAAATAAGTATAAGGATAATACAAAATAAGTAAATGAATAAACATAGAAAATAAAGTAAAGGATATAAA [FAM-16A(-)] | – | binds
